# Paper PMC12828796
# Chains of the proteins cited; added tags and fusions are not shown. Lines headed by an entry give the natural chain unless they say otherwise; changes in a name come on top.
# UniProt O15205: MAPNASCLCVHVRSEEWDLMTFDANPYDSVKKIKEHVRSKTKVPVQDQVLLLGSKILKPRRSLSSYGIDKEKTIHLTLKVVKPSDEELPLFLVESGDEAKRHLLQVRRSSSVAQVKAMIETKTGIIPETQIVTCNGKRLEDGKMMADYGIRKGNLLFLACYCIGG
# UniProt P08254: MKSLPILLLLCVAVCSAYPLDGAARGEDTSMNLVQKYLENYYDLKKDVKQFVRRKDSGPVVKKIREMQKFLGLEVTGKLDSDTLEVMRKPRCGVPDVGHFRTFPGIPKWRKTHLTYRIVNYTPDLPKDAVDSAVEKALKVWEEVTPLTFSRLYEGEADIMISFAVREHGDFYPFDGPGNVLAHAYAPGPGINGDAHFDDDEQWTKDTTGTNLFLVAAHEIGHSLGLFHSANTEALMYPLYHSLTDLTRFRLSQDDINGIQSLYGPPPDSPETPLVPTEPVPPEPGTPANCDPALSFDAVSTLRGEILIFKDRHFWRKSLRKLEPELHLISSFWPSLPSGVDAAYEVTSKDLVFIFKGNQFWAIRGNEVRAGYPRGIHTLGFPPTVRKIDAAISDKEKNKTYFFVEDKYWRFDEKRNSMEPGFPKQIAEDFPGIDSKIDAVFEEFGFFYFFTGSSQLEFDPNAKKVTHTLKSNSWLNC
# Results are given in words; binding and its absence hold for the method and conditions named. In cells and extracts the contact can be indirect. Here binding means that the protein was enriched with, or labelled near, the bait; the list need not be complete.
# Target: ubiquitin D (UBD), Flag-tagged (UniProt O15205)
# Experiment: affinity purification with mass spectrometry; Flag-tagged UBD expressed in cells for 48 h; lysate supernatant incubated with Flag-agarose beads overnight at 4 °C, rinsed 3 times with 1× lysis buffer; SDS-PAGE, silver staining, LC-MS/MS
substance,measurement,value
matrix metalloproteinase 3 (MMP3) (from UniProt P08254),binding,binds
